In PubChem BioAssay AID588590 (National Center for Advancing Translational Sciences (NCATS), 2011):
Hit rate of the full screen: of about 390,000 compounds, about 4,000 (1%) were called active. Inconclusive means that the source gave no clear call. Such entries were picked first, then a sample of the others. Calls come from the whole dose curve; as a rule, active = well fitted inhibition curve with a large enough effect; inconclusive = small, poorly fitted or top-dose-only effect, or another doubt; inactive = no such curve, though single readings can be large or run the other way. A potency beside an inconclusive call is a rough fit, not a confirmed value.

Amino acid sequences for entries named in this document (tags omitted). A change or cut given only in a name is not applied to a line headed by its entry.
UniProt Q9UNA4: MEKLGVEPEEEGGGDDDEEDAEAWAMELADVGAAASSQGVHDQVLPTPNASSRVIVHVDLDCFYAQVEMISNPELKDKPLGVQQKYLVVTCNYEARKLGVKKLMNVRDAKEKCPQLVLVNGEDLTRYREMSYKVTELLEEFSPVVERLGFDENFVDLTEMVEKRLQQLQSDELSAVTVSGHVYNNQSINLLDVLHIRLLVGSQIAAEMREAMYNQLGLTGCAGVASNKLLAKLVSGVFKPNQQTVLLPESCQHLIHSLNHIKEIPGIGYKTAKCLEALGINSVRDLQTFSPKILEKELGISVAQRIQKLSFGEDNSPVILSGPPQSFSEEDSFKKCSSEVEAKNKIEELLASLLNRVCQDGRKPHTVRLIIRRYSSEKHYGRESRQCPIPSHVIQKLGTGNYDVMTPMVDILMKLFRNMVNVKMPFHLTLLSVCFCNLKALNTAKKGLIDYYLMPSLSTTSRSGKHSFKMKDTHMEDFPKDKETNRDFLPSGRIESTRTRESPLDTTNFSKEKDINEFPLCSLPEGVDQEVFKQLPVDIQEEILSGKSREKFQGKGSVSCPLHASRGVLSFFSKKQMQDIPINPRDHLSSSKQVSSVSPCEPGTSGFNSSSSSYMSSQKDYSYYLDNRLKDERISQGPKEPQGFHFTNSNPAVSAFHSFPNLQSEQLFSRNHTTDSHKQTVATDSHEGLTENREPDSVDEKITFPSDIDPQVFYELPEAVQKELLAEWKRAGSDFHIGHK

Molecular target: DNA polymerase iota (Homo sapiens) (UniProt Q9UNA4)
Test: qHTS for Inhibitors of Polymerase Iota
Conditions: Pol iota fluorescent replication assay, 10 min; series mostly up to 115 µM
Outline: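 Fluorescent replication assay read twice, at 0 min and 10 min after adding 50 nM (final) substrate. Enzyme (10 nM) and compounds were first incubated 15 min at room temperature; enzyme-free buffer wells were negative controls.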
Potency is the fitted concentration of half-maximal effect.

Row | Compound | Potency
1 | CCCn1c2ccccc2c2cnn(CC(=O)NCCc3ccc(OCC)cc3)c(=O)c21 | inactive
2 | Cn1c(-c2ccccc2)cc(=O)c2ccccc21 | inactive
3 | N#CCC(=O)N/N=C/c1ccc(Sc2nc3ccccc3s2)o1 | inconclusive: 39.8 µM [inhibitor, single point]
4 | CCN(Cc1cc(=O)n2ccsc2n1)c1cccc2ccccc12 | inconclusive: 35.5 µM [inhibitor, single point]
5 | CCn1c(=O)c2cc(C(=O)N(CCN(C)C)Cc3ccccc3)sc2c2ccccc21 | inconclusive: 89.1 µM [inhibitor, single point]
6 | Cc1ccc(C)c(Cn2c3ccccc3c3cnn(CC(=O)NCCC4=CCCCC4)c(=O)c32)c1 | inconclusive: 89.1 µM [inhibitor, single point]
7 | NC(=O)CSc1ccc2nnc(-c3ccncc3)n2n1 | inactive
8 | Cc1cccc(OCC(=O)N2CCC(c3ccccc3)C2)c1 (stereo not drawn) | inconclusive: 79.4 µM [inhibitor, full curve]
9 | C/C(=C1/SC(=S)N(CCC(=O)O)C1=O)c1ccc(O)cc1 | inconclusive: 15.8 µM [inhibitor, partial curve, poor fit]
10 | COc1ccc(Cl)cc1NC(=O)c1sc(-n2nc(C)c(Cc3ccccc3)c2C)nc1C | inactive
11 | Cc1cc(S(=O)(=O)N2CCC3(CC2)OCCN3S(=O)(=O)c2cccs2)ccc1F | inactive
12 | O=S(=O)(O)c1nnc2sc3ccccc3n12 | inconclusive: 28.2 µM [inhibitor, single point]
13 | Cc1ccc(NC(=O)c2ccc(-c3nn(C)c(=O)c4ccccc34)cc2)cc1 | inactive
14 | COc1ccc2cc3cc(C(=O)NCc4ccc(C)cc4)oc3nc2c1 | inactive
15 | Cc1ccc(Cn2nnnc2CN2CCC(O)(c3cccnc3)CC2)cc1 | inconclusive: 10 µM [inhibitor, partial curve]
16 | Cc1occc1C(=O)NCc1ccc(C(=O)O)o1 | inactive
17 | Cc1ccc(-c2nn(-c3ccccc3)cc2/C=C/C(=O)Nc2cccc(S(N)(=O)=O)c2)cc1 | inactive
18 | C=C1C[C@@]23CCC4[C@@](C)(CCC[C@@]4(C)C(=O)O)C2CC[C@]1(O)C3 (stereo partly drawn) | inconclusive: 0.631 µM [inhibitor, full curve, poor fit]
19 | O=c1[nH]n(CC2COC3(CCCCC3)O2)c(=O)c2ccccc12 (stereo not drawn) | inconclusive: 89.1 µM [inhibitor, single point]
20 | CC(=O)O[C@@H]1[C@H]2[C@@H](C[C@@H](C)[C@@H]3C=CC(=O)[C@@]13C)OC(=O)[C@@H]2C | inactive
21 | CCN(CC)S(=O)(=O)c1ccc(N2CC(C(=O)NCc3ccc4c(c3)OCO4)CC2=O)cc1 (stereo not drawn) | inconclusive: 12.6 µM [inhibitor, single point]
22 | COc1ccccc1NC1SC(=O)N(c2ccccc2)C1=O (stereo not drawn) | inconclusive: 35.5 µM [inhibitor, partial curve, poor fit]
23 | O=C1C=CC(=O)c2c(O)c(N3CCN(CCO)CC3)c(Cl)c(O)c21 | active: 5.62 µM

Row | Compound | Potency
24 | CN(C)/C=C/c1oc2ccc(O)cc2c1[N+](=O)[O-] | inconclusive: 17.8 µM [inhibitor, single point]
25 | N#Cc1ccccc1NC(=S)NC(=O)c1cccs1 | inactive
26 | CCOC(=O)Cc1cc(=O)n(-c2nc3ccccc3s2)[nH]1 | active: 89.1 µM
27 | Cc1ccc(S(=O)(=O)/N=C(/Nc2cccc3ccccc23)c2ccc(F)cc2)cc1 | inconclusive: 89.1 µM [inhibitor, single point]
28 | CCOC(=O)[C@@H]1[C@H]2COc3ccc(Br)cc3[C@@H]2N2C(=O)N(c3cccc(Cl)c3)C(=O)[C@@]12C | inactive
29 | Cc1ncc([N+](=O)[O-])n1CC(=O)NC1CCCC1 | inconclusive: 112 µM [inhibitor, single point]
30 | Cc1ccc(S(=O)(=O)c2cnc(SC(C)C(=O)Nc3ccccc3)[nH]c2=O)cc1 (stereo not drawn) | inconclusive: 79.4 µM [inhibitor, partial curve, poor fit]
31 | O=C1CC(c2ccc3c(c2)OCCO3)Oc2ccc([N+](=O)[O-])cc21 (stereo not drawn) | inconclusive: 10 µM [inhibitor, partial curve, poor fit]
32 | COc1ccc(OC)c(-c2csc(NC(=O)Cn3[nH]c(=O)c4ccccc4c3=O)n2)c1 | inconclusive: 4.47 µM [inhibitor, full curve, poor fit]
33 | CCCc1ccc(OC(C)C(=O)Nc2sc3c(c2C(=O)OC)CCCCC3)cc1 (stereo not drawn) | inactive
34 | O=C(CCC(=O)c1cccs1)Nc1ccc(N2CCCCC2)cc1 | inconclusive: 44.7 µM [inhibitor, partial curve]
35 | CCOc1cccc(CN2CCN(c3cccc(C(F)(F)F)c3)CC2)c1O | inconclusive: 1.58 µM [inhibitor, full curve, poor fit]
36 | Cc1ccc2nc(/C(C#N)=C/c3ccc(O)c(O)c3)[nH]c2c1 | inconclusive: 35.5 µM [inhibitor, partial curve]
37 | CN(C)/C=C1\C=Cc2ccccc21 | inconclusive: 8.91 µM [inhibitor, partial curve, poor fit]
38 | Cc1cccc(CNC(=O)c2cccc(NC(=O)N3CCSc4ncccc43)c2)c1 | inconclusive: 89.1 µM [inhibitor, single point]
39 | COc1ccccc1OCC(=O)NN1Cc2ccccc2C1=N | inconclusive: 2.24 µM [inhibitor, full curve, poor fit]
40 | O=C(CCc1ccc(O)c(O)c1)NNC(=S)Nc1ccc(Br)cc1Cl | inconclusive: 100 µM [inhibitor, single point]
41 | CSc1nc(Nc2cccc(C)c2)c(C#N)c(-c2ccccc2)n1 | inactive
42 | O=C(COC(=O)c1cc([N+](=O)[O-])ccc1N1CCOCC1)Nc1ncc(Cl)cc1Cl | inconclusive: 89.1 µM [inhibitor, single point]
43 | Cc1ccccc1CNC(=O)C1CCN(c2nnc(-n3c(C)ccc3C)s2)CC1 | inactive
44 | COCCNC(=O)c1cccc(OC2CCN(Cc3ccccc3OCCO)CC2)c1 | inconclusive: 79.4 µM [inhibitor, single point]
45 | COCCN=C1Sc2nc3c(C)cccc3cc2CN1Cc1ccco1 | inconclusive: 3.16 µM [inhibitor, partial curve, poor fit]
46 | COc1ccc(C2c3ccc(O)cc3Oc3ncn(CCN4CCOCC4)c(=N)c32)cc1 (stereo not drawn) | inconclusive: 89.1 µM [inhibitor, single point]

Row | Compound | Potency
47 | CCCCC(C)n1[nH]c(=O)c2c(C)cc(C)nc21 (stereo not drawn) | inconclusive: 79.4 µM [inhibitor, partial curve, poor fit]
48 | COC(=O)c1ccc(COc2ccc(/C=C/C(=O)c3ccc(OC)c(CSCC(=O)O)c3)cc2OC)cc1 | active: 20 µM
49 | CCOC(=O)c1c(C)[nH]c(C)c1S(=O)(=O)N1CCCC(C(=O)Nc2ccccc2OCC)C1 (stereo not drawn) | inactive
50 | O=C(O)c1ccc(CSc2ncn[nH]2)cc1 | inconclusive: 79.4 µM [inhibitor, single point]
51 | CCCC/C=C/[C@H](c1ccccc1)[C@H](CO)Cc1ccccc1 | inactive
53 | CS(=O)(=O)N1CCN(Cc2cc(=O)n3ccsc3n2)CC1 | inconclusive: 12.6 µM [inhibitor, full curve, poor fit]
54 | Cn1cccc1Cc1nnc(SCC(=O)Nc2ccc3c(c2)OCCO3)n1CCc1ccccc1 | inconclusive: 1.78 µM [inhibitor, full curve, poor fit]
55 | CCN1CCN(Cc2ccc(NC(=O)c3cc(NC(=O)c4nccnc4N)cc(OC)c3)cc2C(F)(F)F)CC1 | inconclusive: 56.2 µM [inhibitor, partial curve, poor fit]
56 | CCCCCCCCN1[C@@H](CC(=O)OC)c2cc(C(F)(F)F)ccc2S1(=O)=O | inconclusive: 5.62 µM [inhibitor, full curve, poor fit]
57 | C=CCn1c(SCC(=O)NC(=O)NCc2ccco2)nc2sc(CC)cc2c1=O | active: 44.7 µM
58 | CC(C)C[C@H]1CN=C(Nc2ccccc2)N1CC1CCCCCC1 | inconclusive: 0.631 µM [inhibitor, full curve, poor fit]
59 | Cc1ccc(NC(=O)c2cc(S(=O)(=O)N3CCCCC3)c[nH]2)cc1N(C)C | inactive
60 | COc1ccc(-c2noc3c2-c2nc(-c4ccccc4Cl)sc2CC3)cc1 | inconclusive: 25.1 µM [inhibitor, single point]
61 | Cc1cc(C)c(S(=O)(=O)Nc2cc(SCC(=O)O)c(O)c3ccccc23)cc1C | active: 20 µM
62 | C=CCN(C(=O)Cc1cccs1)c1nc(-c2ccc(S(C)(=O)=O)cc2)cs1 | inconclusive: 22.4 µM [inhibitor, full curve]
63 | Cn1ccnc1SCC(=O)NC12CC3CC(CC(C3)C1)C2 | inconclusive: 56.2 µM [inhibitor, full curve]
64 | COc1ccc(CCNCc2c(C(=O)O)c(C)n(Cc3c(F)cccc3Cl)c2C)cc1OC | inconclusive: 89.1 µM [inhibitor, partial curve, poor fit]
65 | COc1ccc2c(c1)CC(C(=O)NCc1ccc(F)cc1)CO2 (stereo not drawn) | inactive
66 | CCOc1ccc2nc(N3CCN(C(=O)c4ccc5c(c4)CCCC5)CC3)sc2c1 | inactive
67 | O=C(COC(=O)CSc1ccc([N+](=O)[O-])cc1)NCCCc1ccccc1 | inconclusive: 28.2 µM [inhibitor, partial curve]
68 | CCCCC1C(=O)CC[C@H]2[C@@H]1CC(=O)[C@@H]2C/C=C\CCCC(=O)O (stereo partly drawn) | inconclusive: 44.7 µM [inhibitor, partial curve]

Fetched by compound from the entries so far (5):
Row | Compound | Potency
47 | CCCCC(C)n1[nH]c(=O)c2c(C)cc(C)nc21 (stereo not drawn) | inconclusive: 79.4 µM [inhibitor, partial curve, poor fit]
66 | CCOc1ccc2nc(N3CCN(C(=O)c4ccc5c(c4)CCCC5)CC3)sc2c1 | inactive
53 | CS(=O)(=O)N1CCN(Cc2cc(=O)n3ccsc3n2)CC1 | inconclusive: 12.6 µM [inhibitor, full curve, poor fit]
63 | Cn1ccnc1SCC(=O)NC12CC3CC(CC(C3)C1)C2 | inconclusive: 56.2 µM [inhibitor, full curve]
60 | COc1ccc(-c2noc3c2-c2nc(-c4ccccc4Cl)sc2CC3)cc1 | inconclusive: 25.1 µM [inhibitor, single point]
